From PMC4563850, “Lectin from green speckled lentil seeds (Lens culinaris) triggered apoptosis in nasopharyngeal carcinoma cell lines” (Chinese Medicine, 2015)

Tested on: T1, GSLL (green speckled lentil seed lectin)
T1 construct: gene LcL; native, purified from seeds; 21 kDa non-reduced, subunits 17 and ~4 kDa; N-terminus TETTSFSITKFSPDQ (LcL residues 31-45); chain borders and alpha2beta2 are printed for LcL, not for GSLL
Experiment: hemagglutination inhibition, rabbit red blood cells
Type: binding, Lens culinaris
Details: PBS; 2 % rabbit red blood cells; competitive with cell-surface sugars

| Compound | minimal concentration with an inhibitory effect |
| --- | --- |
| N[C@H]1C(O)O[C@H](CO)[C@@H](O)[C@@H]1O (stereo partly drawn) [glucosamine] | ~ 31.2 mM |
| OC[C@H]1OC(O)[C@H](O)[C@@H](O)[C@@H]1O (stereo partly drawn) [glucose] | ~ 15.6 mM |
| OC[C@H]1OC(O)[C@@H](O)[C@@H](O)[C@@H]1O (stereo partly drawn) [mannose] | ~ 15.6 mM |
